Experimental data reported in patent US20220089727A1.
Substitutions are numbered along the chain they refer to. Results are given in words; binding and its absence hold for the method and conditions named. Some entries that bind do so weakly or less than the wild type.

Protein sequences, listed by entry. Tags and fused reporters are not part of them. Lines headed by an entry give the natural chain unless they say otherwise; changes in a name come on top. Residues count along the entry.
UniProt Q08722: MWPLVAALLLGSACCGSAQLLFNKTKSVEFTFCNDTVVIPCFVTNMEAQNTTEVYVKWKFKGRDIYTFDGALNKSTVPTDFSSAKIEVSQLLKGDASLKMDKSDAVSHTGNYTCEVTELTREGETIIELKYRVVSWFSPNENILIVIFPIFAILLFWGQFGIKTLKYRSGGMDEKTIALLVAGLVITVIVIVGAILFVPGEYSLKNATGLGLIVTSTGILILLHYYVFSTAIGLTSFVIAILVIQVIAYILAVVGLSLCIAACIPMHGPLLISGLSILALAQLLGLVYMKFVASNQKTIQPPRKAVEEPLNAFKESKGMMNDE
CD47 on the surface of Jurkat cells: residues 19-323 of Q08722
human CD47 (analyte in the Biacore assay): residues 19-139 of Q08722

Legend:
[1] = molecular target: CD47 on the surface of Jurkat cells (human) (UniProt Q08722); assay: flow cytometry on Jurkat cells, hybridoma supernatant, goat anti-mouse IgG Fc FITC secondary antibody
[2] = molecular target: human CD47ECD-linker peptide-7his (human) (UniProt Q08722); assay: ELISA of clone supernatant on human CD47-his
[3] = molecular target: CD47 on the surface of Jurkat cells (human) (UniProt Q08722); assay: flow cytometry on Jurkat cells
[4] = molecular target: CD47 on the surface of Jurkat cells (human) (UniProt Q08722); assay: FACS of clone supernatant on Jurkat cells
[5] = molecular target: monkey CD47ECD-linker peptide-7his (monkey); assay: ELISA of clone supernatant on monkey CD47-his
[6] = molecular target: human CD47-linker peptide-hIgG1Fc (human); assay: competition ELISA: human CD47-hFc coated, antibody titrated (3-fold from 20000 ng/mL, 7 points) and mixed with human SIRP-his, bound SIRP-his detected with anti-His-HRP
[7] = molecular target: human CD47 (analyte in the Biacore assay) (human) (UniProt Q08722); assay: SPR (Biacore T200), antibody captured by anti-mouse Fc, human CD47 as analyte

Measured: binding

B1: 059-1.30.1 (antibody, mouse IgG1, V domains shown)
VH: EVQLQQSGPELVKPGASVRMSCKASGYTFTNYVMHWVKQKPGQGLEWIGYINPYNDGTKYSEKFKGKATLTSDKSSITAYMELSSLTSEDSAVYYCAKGGLFTFDYWGQGTTLTVSS
VL: DVVMTQTPLSLPVSLGDQASISCRSSQSLVHSKGNTYLHWYLQKPGQSPKLLIYRVSNRFSGVPDRFSGSGSGTDFTLKISRVEAEDLGVYFCSQSTHVPFTFGSGTKLEIK
binds: [1] | [2] | [3] | [4] | [5] | [6]

B2: 059-1.82.1 (antibody, mouse IgG3, V domains shown)
VH: B1 VH with R19K, K59N, S61N, I77S, L101W, T103S, F104M, T112S, L113V
VL: DVVMTQTPLSLPVSLGDQASISCRSSQSLVHSNGKTYLQWYLQKPGQSPKLLIYKVSNRFSGVPDRFSGSGSGTDFTLKISRVEAEDLGVYFCSQSTHVYTFGGGTKLEIK
binds: [7] | [5]

B3: 059-1.20.1 (antibody, mouse IgG1, V domains shown)
VH: EVQLQQSGPELVKPGASVNMSCKASGYTFTNYFLHWVKQKPGQGLEWIGYINPYNDGTNYNENFKGKATLTSDKSSSTAYMELSSLTSEDSAVYYCAKGGWFSMDYWGQGTSVTVSS
VL: B2 VL
binds: [5]
